Measurements as given in US20130109049A1, “Method of Establishing a Fungal Nail Infection” (NOVABIOTICS LIMITED, priority 2009, published 2013).
At least one compound was matched to its structure with a doubt left.

System: Candida
Test: Ex vivo human nail fragment model, treatment of Candida infection
Type: cell-based
Settings: Experiment 6; 16 μg/ml in 1.6% (w/v) DMSO in water; 14 d and 28 d
From the text: Trichophyton rubrum strain NCPF0118 was obtained from the National Collection of Pathogenic Fungi, Bristol, UK. Clinical isolates of T. rubrum DM2006 1661, T. rubrum DM2006 1358, T. mentagrophytes DM2006 1503, T. mentagrophytes DM2006 1498 were isolated from patients suffering a range of tinea infections and were purchased from Professor Michel Monod (Service de Dermatologie, Université de Lausanne, Switzerland). Clinical isolates of Candida samples were also obtained from patients suffering from Candidal infection.
The procedure was carried out as described for Example 1 above with modifications to the vehicle, and fungal strains used. Each nail was inoculated with 10 μl of a spore suspension of Candida. […]
At the end of the treatment period, the nail fragments were placed in sterile 2 ml microcentrifuge tubes containing 450 μl of a suspension broth consisting of Sabouraud's Liquid Medium, pH 5.6, containing approximately 100 mg of sterile zirconia beads (0.5 mm diameter). […] Colonies were counted on dishes that contained between 20 and 200 colonies in total, and the total number of cfu present in each sample was calculated. […] The counts were corrected for the surface area of the nails studied to give cfu/cm^2, transformed to log10 and means and standard errors of the mean were calculated using GraphPad Prism 4 (GraphPad, San Diego, Calif.). […]

CCC(C)n1ncn(-c2ccc(N3CCN(c4ccc(OCC5COC(Cn6cncn6)(c6ccc(Cl)cc6Cl)O5)cc4)CC3)cc2)c1=O [Itraconazole®, (2R,4S)-rel-1-(butan-2-yl)-4-{4-[4-(4-{[(2R,4S)-2-(2,4-dichlorophenyl)-2-(1H-1,2,4-triazol-1-ylmethyl)-1,3-dioxolan-4-yl]methoxy}phenyl)piperazin-1-yl]phenyl}-4,5-dihydro-1H-1,2,4-triazol-5-one, reference compound]
outcome of treatment: unsuccessful
